Assay results as given in US4717716A, “Immuno-regulator” (Nihon University, priority 1985, dated 1988).

System: plaque-forming cells of DDY mouse immunized with sheep red blood cells (SRBC)
Assay: PFC method (hemolytic plaque-forming cells) in mice immunized with SRBC
Type: in vivo

NCCC(=O)N[C@@H](Cc1c[nH]cn1)C(=O)O [L-carnosine, β-alanyl-L-histidine]
Weight of Spleen (25 mg/kg for 6 days, 2.5 × 10^8 SRBC, mice): 0.14 g
Weight of Spleen (50 mg/kg for 6 days, 2.5 × 10^8 SRBC, mice): 0.18 g
Weight of Spleen (250 mg/kg for 6 days, 2.5 × 10^8 SRBC, mice): 0.15 g
Weight of Spleen (500 mg/kg for 6 days, 2.5 × 10^8 SRBC, mice): 0.14 g
Weight of Spleen (SRBC antigen amount 2.5 × 10^9, 100 mg/Kg/day S.C. for six days): 0.21 g
Weight of Spleen (SRBC antigen amount 5 × 10^7, 100 mg/Kg/day S.C. for six days): 0.14 g
Weight of Spleen (SRBC antigen amount 5 × 10^8, 100 mg/Kg/day S.C. for six days): 0.15 g
Weight of Spleen (mice of 2 weeks age, 100 mg/Kg/day S.C., 2.5 × 10^8 SRBC): 0.14 g
Weight of Spleen (mice of 5 weeks age, 100 mg/Kg/day S.C., 2.5 × 10^8 SRBC): 0.15 g
Weight of Spleen (mice of 30 weeks age, 100 mg/Kg/day S.C., 2.5 × 10^8 SRBC): 0.23 g
